Reference: paper doi:10.1101/2025.03.24.645050
Results are given in words; binding and its absence hold for the method and conditions named.

By UniProt entry, the sequences of proteins in these tests, tags left out. Where a name states a change or a piece, a line headed by the entry shows the natural chain unless it says otherwise.
UniProt Q96SW2: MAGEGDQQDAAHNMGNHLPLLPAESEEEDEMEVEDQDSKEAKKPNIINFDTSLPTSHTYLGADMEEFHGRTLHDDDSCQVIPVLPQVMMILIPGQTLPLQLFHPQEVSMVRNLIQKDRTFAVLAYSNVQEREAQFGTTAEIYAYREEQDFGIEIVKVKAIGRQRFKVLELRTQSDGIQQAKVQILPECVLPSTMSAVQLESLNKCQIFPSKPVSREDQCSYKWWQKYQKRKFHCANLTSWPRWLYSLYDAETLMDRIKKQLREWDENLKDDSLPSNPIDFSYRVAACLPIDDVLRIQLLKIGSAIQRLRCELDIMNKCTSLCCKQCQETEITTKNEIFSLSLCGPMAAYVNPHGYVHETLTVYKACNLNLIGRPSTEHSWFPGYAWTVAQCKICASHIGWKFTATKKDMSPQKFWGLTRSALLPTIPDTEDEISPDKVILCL
UniProt P15104: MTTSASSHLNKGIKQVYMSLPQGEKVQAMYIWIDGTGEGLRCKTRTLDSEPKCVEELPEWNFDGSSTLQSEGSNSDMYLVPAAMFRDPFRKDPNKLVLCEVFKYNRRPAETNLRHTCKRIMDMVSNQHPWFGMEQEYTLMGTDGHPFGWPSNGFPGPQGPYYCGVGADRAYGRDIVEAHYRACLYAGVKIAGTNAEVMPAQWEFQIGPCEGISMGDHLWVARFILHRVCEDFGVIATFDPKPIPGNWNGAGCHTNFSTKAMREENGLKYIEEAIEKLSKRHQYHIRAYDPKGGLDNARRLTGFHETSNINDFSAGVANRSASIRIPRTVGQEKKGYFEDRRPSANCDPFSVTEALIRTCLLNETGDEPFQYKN

Target: His6-CRBN/DDB1 complex (UniProt Q96SW2)
Assay: AlphaScreen or HTRF

In the case of “Full-length GST-GLUL N373A incubated with PCMT1 (from UniProt P15104 1-373) (enzyme)”, the binding is reported as “no binding”.
